12 molecules from PubChem BioAssay AID256 (DTP/NCI, 2004) can be followed below.

Each structure is given as a SMILES string. The list is a part of this screen's results and no random one: it gathers tests that were run many times, whatever their T/C, doses with no T/C, and many T/C values between a quarter and a half above the control. Further doses and runs are listed elsewhere. T/C is the treated group as % of the vehicle group. Some entries give survivors of the animals treated and no T/C: the source files T/C as zero there, which appears to mark a toxic dose or a test without result, not a measured value. Some survivor counts are full or nearly so, which does not show that the dose was tolerated: the source hardly ever lists a survival T/C far under the control, and the zero likely stands for such cases as well. Survivors were counted at the toxicity check, usually on the fifth day, unless a day is given; later deaths do not show. Schedules are NCI's codes, taken here to give the interval after Q, in days (D) or hours (H), and the number of doses after X. Some entries hold several experiments; their values stand side by side, smallest first. Where survival is the endpoint, this PubChem deposit counts one and a half times the control or more as active, and values a quarter to a half above the control carry no call in these data; other NCI protocols may use other cut-offs. Some T/C values are followed by the survivors on the day toxicity was checked, most often the fifth; without a count, all were alive then.

The test system of this assay is CD2F1 mice, L1210 leukemia ip, survival T/C. The assay is described as follows: NCI In Vivo Anticancer Drug Screen. Data for tumor model L1210 Leukemia (intraperitoneal) in CD2F1 (CDF1) mice. Particulars: higher T/C = longer survival. The gist of the method: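 Mice carrying a transplanted tumor received test compound or vehicle alone. The value is the measurement in the treated group divided by that in the vehicle-treated control group.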

Where [1] appears, read: T/C endpoint: mean survival time, dose: 4.0 mg/kg/injection, schedule: Q01DX009 (ip), vehicle: saline.
Setting [2] is: T/C endpoint: mean survival time, dose: 200.0 mg/kg/injection, schedule: Q04DX003 (ip), vehicle: saline with Tween-80.
Where [3] appears, read: T/C endpoint: mean survival time, dose: 400.0 mg/kg/injection, schedule: Q04DX003 (ip), vehicle: saline with Tween-80.

For `N[C@H](C(=O)O)[C@@H]1CC(Cl)=NO1`, the T/C (T/C endpoint: mean survival time, dose: 1.5 mg/kg/injection, schedule: Q01DX009 (ip), vehicle: saline) was 146 % of control; the T/C (T/C endpoint: mean survival time, dose: 1.56 mg/kg/injection, schedule: Q01DX009 (ip), vehicle: saline) was 137 and 145 % of control; the T/C (T/C endpoint: mean survival time, dose: 3.12 mg/kg/injection, schedule: Q01DX009 (ip), vehicle: saline) was 145 % of control; the T/C under setting [1] was 138 % of control; the T/C (T/C endpoint: mean survival time, dose: 50.0 mg/kg/injection, schedule: Q04DX003 (ip), vehicle: water) was 146 % of control; the T/C (T/C endpoint: mean survival time, dose: 400.0 mg/kg/injection, schedule: Q04DX003 (ip), vehicle: water) was 142 % of control. In addition, the T/C is, setting by setting: (T/C endpoint: median survival time, dose: 0.5 mg/kg/injection, schedule: Q01DX009 (ip), vehicle: saline) 137 % of control; (T/C endpoint: median survival time, dose: 1.0 mg/kg/injection, schedule: Q01DX009 (ip), vehicle: saline) 125 % of control; (T/C endpoint: median survival time, dose: 1.5 mg/kg/injection, schedule: Q01DX009 (ip), vehicle: saline) 126 and 141 % of control; (T/C endpoint: median survival time, dose: 2.0 mg/kg/injection, schedule: Q01DX009 (ip), vehicle: saline) 128 % of control; (T/C endpoint: median survival time, dose: 3.0 mg/kg/injection, schedule: Q01DX009 (ip), vehicle: saline) 131 and 137 % of control [8 of 9 alive]; (T/C endpoint: median survival time, dose: 4.0 mg/kg/injection, schedule: Q01DX009 (ip), vehicle: saline) 149 % of control. Also, the T/C (T/C endpoint: median survival time, dose: 6.0 mg/kg/injection, schedule: Q01DX009 (ip), vehicle: saline) was 145 % of control. The survivor count is, setting by setting: (T/C endpoint: mean survival time, dose: 200.0 mg/kg/injection, schedule: Q04DX003 (ip), vehicle: water) 3 of 3; (T/C endpoint: median survival time, dose: 16.0 mg/kg/injection, schedule: Q01DX009 (ip), vehicle: saline) 10 of 10.
Regarding `O=[As](O)(O)c1ccccc1[As](=O)(O)O`, the survivor count runs as follows: (T/C endpoint: mean survival time, dose: 100.0 mg/kg/injection, schedule: Q04DX003 (ip), vehicle: saline with Tween-80) 1 of 6; under setting [2], 0 of 6; under setting [3], 0 of 6.
On to `CCNC(=O)OCc1cn2c(c1COC(=O)NCC)CCC2`, for which the survivor count (T/C endpoint: mean survival time, dose: 25.0 mg/kg/injection, schedule: Q04DX003 (ip), vehicle: other) is reported as 0 of 5; the survivor count (T/C endpoint: mean survival time, dose: 50.0 mg/kg/injection, schedule: Q04DX003 (ip), vehicle: other) was 0 of 5; the survivor count (T/C endpoint: mean survival time, dose: 100.0 mg/kg/injection, schedule: Q04DX003 (ip), vehicle: other) was 0 of 5; the survivor count (T/C endpoint: mean survival time, dose: 200.0 mg/kg/injection, schedule: Q04DX003 (ip), vehicle: other) was 0 of 5.
For the molecule `O=[N+]([O-])c1ccc(Sc2ccc([N+](=O)[O-])cc2)cc1`, under setting [3], the survivor count is given as 6 of 6.
On to `N=c1c2ncn(C3CCCC3)c2ncn1OCc1ccccc1`, for which the survivor count (T/C endpoint: mean survival time, dose: 200.0 mg/kg/injection, schedule: Q01DX001 (ip), vehicle: other) is on record as 0 of 6 and the survivor count (T/C endpoint: mean survival time, dose: 400.0 mg/kg/injection, schedule: Q01DX001 (ip), vehicle: other) is reported as 0 of 6.
With `Cc1ccccc1NCC#N`, the survivor count runs as follows: (T/C endpoint: mean survival time, dose: 100.0 mg/kg/injection, schedule: Q01DX009 (ip), vehicle: saline with Tween-80) 0 of 6; under setting [2], 0 of 6; under setting [3], 0 of 6.
For `CC1=C(CNc2ncnc3nc[nH]c23)CC=CC1`, under setting [2], the survivor count is reported as 6 of 6.
`COc1cccc2c1C(=O)c1c(OC)c(CBr)cc(OC)c1C2=O`: the survivor count (T/C endpoint: mean survival time, dose: 200.0 mg/kg/injection, schedule: Q01DX005 (ip), vehicle: other) is reported as 5 of 6.
As for `CCC(=O)OCC(=O)[C@]1(O)Cc2c(O)c3c(c(O)c2[C@@H](OC2CC(N)C(O)C(C)O2)C1)C(=O)c1c(OC)cccc1C3=O` (some centres not stated), the T/C was 125 % of control (T/C endpoint: mean survival time, dose: 0.5 mg/kg/injection, schedule: Q01DX009 (ip), vehicle: saline); 139 % of control (T/C endpoint: mean survival time, dose: 0.5 mg/kg/injection, schedule: Q04DX003 (ip), vehicle: saline with Tween-80); 144 % of control (T/C endpoint: mean survival time, dose: 0.66 mg/kg/injection, schedule: Q04DX003 (ip), vehicle: saline sonified); 136 % of control (T/C endpoint: mean survival time, dose: 1.0 mg/kg/injection, schedule: Q01DX009 (ip), vehicle: saline, evaluated on day 20); 135 % of control (T/C endpoint: mean survival time, dose: 1.0 mg/kg/injection, schedule: Q01DX009 (ip), vehicle: saline, evaluated on day 60); 141 % of control (T/C endpoint: mean survival time, dose: 1.0 mg/kg/injection, schedule: Q04DX003 (ip), vehicle: saline sonified). The T/C reads like this: (T/C endpoint: mean survival time, dose: 1.0 mg/kg/injection, schedule: Q04DX003 (ip), vehicle: saline with Tween-80) 139 % of control; (T/C endpoint: mean survival time, dose: 1.25 mg/kg/injection, schedule: Q04DX003 (ip), vehicle: saline) 133 % of control; (T/C endpoint: mean survival time, dose: 2.0 mg/kg/injection, schedule: Q01DX009 (ip), vehicle: saline) 147 % of control; (T/C endpoint: mean survival time, dose: 2.5 mg/kg/injection, schedule: Q01DX001 (ip), vehicle: saline) 129 % of control; (T/C endpoint: mean survival time, dose: 2.5 mg/kg/injection, schedule: Q04DX003 (ip), vehicle: saline) 137 % of control; under setting [1], 127 % of control. The T/C by setting is: (T/C endpoint: mean survival time, dose: 5.0 mg/kg/injection, schedule: Q01DX001 (ip), vehicle: saline) 142 % of control; (T/C endpoint: mean survival time, dose: 5.0 mg/kg/injection, schedule: Q04DX003 (ip), vehicle: saline) 148 % of control; (T/C endpoint: mean survival time, dose: 10.0 mg/kg/injection, schedule: Q01DX001 (ip), vehicle: saline) 136 % of control; (T/C endpoint: mean survival time, dose: 10.0 mg/kg/injection, schedule: Q04DX003 (ip), vehicle: saline) 128 % of control. Moreover, the survivor count runs as follows: (T/C endpoint: mean survival time, dose: 20.0 mg/kg/injection, schedule: Q01DX001 (ip), vehicle: saline) 6 of 10; (T/C endpoint: mean survival time, dose: 20.0 mg/kg/injection, schedule: Q04DX003 (ip), vehicle: saline) 6 of 10; (T/C endpoint: mean survival time, dose: 40.0 mg/kg/injection, schedule: Q01DX001 (ip), vehicle: saline) 0 of 10.
Consider `[N-]=[N+]=CC(=O)NCC(=O)NNCCO`, for which the survivor count by setting is: (T/C endpoint: mean survival time, dose: 200.0 mg/kg/injection, schedule: Q01DX009 (ip), vehicle: other) 6 of 6; (T/C endpoint: mean survival time, dose: 400.0 mg/kg/injection, schedule: Q01DX009 (ip), vehicle: other) 2 of 6 and 6 of 6; (T/C endpoint: mean survival time, dose: 600.0 mg/kg/injection, schedule: Q01DX009 (ip), vehicle: other) 0 of 6 and 6 of 6; (T/C endpoint: mean survival time, dose: 800.0 mg/kg/injection, schedule: Q01DX009 (ip), vehicle: other) 0 of 6 and 6 of 6.
Take `O=C(O)C1C2CCC(C2)C1C(=O)O` (configuration not stated): the survivor count under setting [3] was 2 of 6.
Turning to `N=C(N)SCCc1ccccc1`, the survivor count is 1 of 3 (T/C endpoint: mean survival time, dose: 100.0 mg/kg/injection, schedule: Q01DX001 (ip), vehicle: saline); 0 of 3 (T/C endpoint: mean survival time, dose: 200.0 mg/kg/injection, schedule: Q01DX001 (ip), vehicle: saline); 0 of 3 (T/C endpoint: mean survival time, dose: 400.0 mg/kg/injection, schedule: Q01DX001 (ip), vehicle: saline).
